Source: paper PMC6694192
Results are given in words; binding and its absence hold for the method and conditions named. Binding seen in cells or lysates may run through a third protein. Some results given as binding are weak or reduced against the parent protein; the word gives no strength.

Protein sequences, listed by entry. Tags and fused reporters are not part of them.
UniProt Q15131: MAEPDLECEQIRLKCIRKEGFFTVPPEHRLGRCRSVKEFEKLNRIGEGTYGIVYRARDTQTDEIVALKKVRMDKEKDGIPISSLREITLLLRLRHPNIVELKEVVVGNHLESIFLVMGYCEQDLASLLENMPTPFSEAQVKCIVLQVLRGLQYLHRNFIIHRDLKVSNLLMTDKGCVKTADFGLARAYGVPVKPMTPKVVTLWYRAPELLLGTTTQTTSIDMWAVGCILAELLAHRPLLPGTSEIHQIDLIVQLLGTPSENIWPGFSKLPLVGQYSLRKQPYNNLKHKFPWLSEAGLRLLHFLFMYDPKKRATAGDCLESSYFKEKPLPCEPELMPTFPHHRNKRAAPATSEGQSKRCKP

Biological target: Cyclin dependent kinase 10 (human (endogenous in HCEC)) (UniProt Q15131)
Experiment: co-IP; protein extracts of HCEC, migrating (18 hours post wounding) and non-migrating; precleared with protein A Sepharose, incubated overnight at 4 °C with anti-cdk10 and protein A-agarose; blot probed with anti-cdk10, stripped and probed with anti-ETS2

B1: V-ets erythroblastosis virus E26 oncogene homolog 2 (avian) (protein, UniProt P15036 1-469)
chain: MNDFGIKNMDQVAPVANSYRGTLKRQPAFDTFDGSLFAVFPSLNEEQTLQEVPTGLDSISHDSANCELPLLTPCSKAVMSQALKATFSGFKKEQRRLGIPKNPWLWSEQQVCQWLLWATNEFSLVNVNLQRFGMNGQMLCNLGKERFLELAPDFVGDILWEHLEQMIKENQEKTEDQYEENSHLTSVPHWINSNTLGFGTEQAPYGMQTQNYPKGGLLDSMCPASTPSVLSSEQEFQMFPKSRLSSVSVTYCSVSQDFPGSNLNLLTNNSGTPKDHDSPENGADSFESSDSLLQSWNSQSSLLDVQRVPSFESFEDDCSQSLCLNKPTMSFKDYIQERSDPVEQGKPVIPAAVLAGFTGSGPIQLWQFLLELLSDKSCQSFISWTGDGWEFKLADPDEVARRWGKRKNKPKMNYEKLSRGLRYYYDKNIIHKTSGKRYVYRFVCDLQNLLGFTPEELHAILGVQPDTED
Question: B1 was tested. Which binding did it give?
Answer: The binding was “binds”.
